Reference: article doi:10.1101/156059
No constants are given. Whether binding was seen depends on the method and setting. In cells and extracts the contact can be indirect. These calls come from enrichment with a bait or labelling near it, and not all partners need be listed. Values belong to the binder of their own block, whether it stands above or below them.

Protein sequences, listed by entry. Tags and fused reporters are not part of them. Lines headed by an entry give the natural chain unless they say otherwise; changes in a name come on top.
UniProt Q8BP22: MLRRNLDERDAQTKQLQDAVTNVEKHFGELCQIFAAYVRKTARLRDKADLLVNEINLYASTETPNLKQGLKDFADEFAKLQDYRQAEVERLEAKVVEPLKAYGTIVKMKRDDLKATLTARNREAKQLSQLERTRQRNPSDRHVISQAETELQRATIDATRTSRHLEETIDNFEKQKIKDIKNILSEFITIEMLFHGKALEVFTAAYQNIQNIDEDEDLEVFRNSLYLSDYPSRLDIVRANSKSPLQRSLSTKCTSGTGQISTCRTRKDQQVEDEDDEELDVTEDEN

Key:
Assay in all cases: affinity purification with mass spectrometry
[1] = biological target: 1600002H07Rik-LAP (mouse)
FAM92A-LAP (mouse) = FAM92A-LAP (mouse) (UniProt Q8BP22)
TTC23-LAP (mouse) = biological target: T1, TTC23-LAP (mouse) (UniProt Q8CHY7)
T1 sequence: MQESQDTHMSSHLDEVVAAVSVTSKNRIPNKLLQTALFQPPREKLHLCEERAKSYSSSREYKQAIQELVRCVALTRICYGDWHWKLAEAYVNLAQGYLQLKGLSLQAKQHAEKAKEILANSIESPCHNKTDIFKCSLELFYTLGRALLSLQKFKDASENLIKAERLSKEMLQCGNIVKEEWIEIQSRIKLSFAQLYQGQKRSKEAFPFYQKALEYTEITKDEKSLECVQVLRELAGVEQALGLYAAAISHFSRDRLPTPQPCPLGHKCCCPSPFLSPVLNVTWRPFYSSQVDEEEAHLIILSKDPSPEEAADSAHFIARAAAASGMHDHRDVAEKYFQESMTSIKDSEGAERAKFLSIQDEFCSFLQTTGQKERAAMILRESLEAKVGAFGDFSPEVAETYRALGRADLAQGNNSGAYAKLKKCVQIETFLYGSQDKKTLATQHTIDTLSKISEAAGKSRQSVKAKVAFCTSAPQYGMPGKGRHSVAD

[2] = biological target: T2, δ-tubulin (TUBD1) (mouse (endogenous in IMCD3)) (UniProt Q9R1K7)
T2 sequence: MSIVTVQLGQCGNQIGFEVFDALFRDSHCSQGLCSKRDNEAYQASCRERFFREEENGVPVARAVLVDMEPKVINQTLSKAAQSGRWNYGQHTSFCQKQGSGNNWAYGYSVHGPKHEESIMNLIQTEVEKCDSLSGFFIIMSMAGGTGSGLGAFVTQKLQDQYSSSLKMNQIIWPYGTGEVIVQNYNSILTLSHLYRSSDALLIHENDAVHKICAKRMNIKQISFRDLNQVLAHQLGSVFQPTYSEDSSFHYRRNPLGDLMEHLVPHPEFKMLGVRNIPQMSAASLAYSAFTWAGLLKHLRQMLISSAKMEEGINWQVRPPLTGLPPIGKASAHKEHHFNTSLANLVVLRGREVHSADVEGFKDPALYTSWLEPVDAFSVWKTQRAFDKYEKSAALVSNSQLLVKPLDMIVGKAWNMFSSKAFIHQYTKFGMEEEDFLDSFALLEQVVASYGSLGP

B2: DZIP1L (protein, UniProt Q499E4 1-774)
chain: MQYPAATAEGLSGPLSGAYTLPAFKFQPRRESIDWRRISAVDVDRVARELDVATLQENIAGVTFCNLDGEVCNHCRQPVDPVLLKVLRLAQLIIEYLLHCQDCLSASVAQLEARLQASLGQQQRGQQELGRQADELKGVREESRRRRKMISTLQQLLLQTSAHSYHTCHLCDKTFMNATFLRGHIQRRHAGMADVGKQKQEQPLGEVLEELRAKLKWTQGELEAQREAERQRQVQELEMARQREMEAKKKFDEWKEKERSKLYGEIDKLKQLFWDEFKTVANQNSTLEEKLKALQSYSMTESHLGSLRDEESEERLKHAQEVQALQEKMEVQKTEWKRKMKALHEERAAERRQLQEENERLHVSLSQDQKKAAAQSQRHINALRAQLQEQARLIESQEETIQTLSLRKVEEVQEMPKAVATEEDSSEEELEASLEERQEQRKVLAALRKNPTWLKQFRPILEDTLEEKLEGLGIKRDTKGISAQTVRRLEPLLRTQREQIARSFREFPSLREKLNKEVSSRVKQRWESTTQPDGQPPVKSQRVTLATREVRPKTRTLTVALPSKPAEPSTPTLQGHSSHGPGLTQVSTPIPRPRVHGPSSTPVSPGSGLSSTPPFSSEEEPEGDVVQRVSLQPPKVLPRSAAKPEDNWGWSDSETSEESAQPPGKGSGGLASSGTLVQSIVKNLEKQLETPAKKPSGGVNMFLRPNAALQRASTPARKSQLSEDESDVEISSLEDLSQDLGQKGKPKPLSHSKLPEKFDVSPWSSGSRPRIPGW
binding (FAM92A-LAP (mouse)): binds

B3: EFCAB7 (protein, UniProt Q8VDY4 1-628)
chain: MASNPGSDAALGTQNPLLSGSPRTKKFPLTEQEVFYMNCRAAYLTIFKSSLENIISKDQLYLALQHAGRNPSQKTINKYWTPQTAKLNFDDFCIILSKEKPTSKAELLKSFKKLDVNDDGAILHSDLQKYLTKRGEKMTQEEVNAVINLADINANGKFDYVKFCKLYMTTSEQCLKTTLERLEADSKLRRQQFGSHMEGSPERGPSPAPKPSPRVIRKNDQETFSSKGDTSHALLSTTRKFKTSVSFTMTMSANSNQDSTLTEPNLKDWQCAQSKGCFFLEEDGEVVSHQYKMHIAQRSVLYLTIKPLYLSQVEGKRCPWLSVDTALYILKKNENPAEPQLMCFTELRNREVFGWTGELEAGIYWLIPSTTGCRLKKETKPVTEEAQLVHRDETGELSLTSEFRSTLSEIFEVIDLDGNGLISLEEYNFFELRTSGEKCDEDAWAVCRENFDTKKNELTRQGFMDLHLMEANDREGDPLDLWVTLHSMGYNKALELTEACPFVINIYAERCKPRIKVVHMEACSGQLEKAICKSVLDRSDAKVMDGYENIIVHTCNYDTWITSIIENKSDNKVIIHINNELSKNCVNNRGLNIFAVEVAPRSTMVCQHVMPLNEQEEWIYCCVYSLVA
binding (TTC23-LAP (mouse)): binds

B4: IQCE (protein, UniProt Q6PCQ0 1-778)
chain: MSLGTTDIASETGDDSLSAITFESDIESKTKRKSFHKPPSTSPKSPYYSKPRKVTSWRSLKTAGSMPLSSRMSLTPQKLWLGSSKQGSVAQPPSPTLTSEHAWTHPPSCTPDYLTEAVRAKRADLRRSGSHGHVSGTSVYREKEDMYDEIIELKKSLHMQKSDVDLMRTKLRRLEEENSRKDRQIEQLLDPSRGPDFVRTLAEKKPDTGWVITGLKQRIFRLEQQCKEKDNTINKLQTDMKTTNLEEMRIAMETYYEEIHRLQTLLASSEATGKKPMVEKKLGVKRQKKMSSALLNLTRSVQELTEENQSLKEDLDRMLSNSPTISKIKGYGDWSKPRLLRRIAELEKKVSSSESPKQSTSELVNPNPLVRSPSNISVQKQPKGDQSPEDLPKVAPCEEQEHLQGTVKSLREELGALQEQLLEKDLEMKQLLQSKIDLEKELETAREGEKGRQEQEQALREEVEALTKKCQELEEAKREEKNSFVAVTHEAHPELHAPSPCSRHSEPDSDNSAGEEGSSQPPAPCSEERREAAIRTLQAQWKAHRRKKREAALDEAATVLQAAFRGHLARSKLVRSKVPDSRSPSLPGLLSPLNQSSPAPRVLSPISPAEENPTQEEAVIVIQSILRGYLAQARFIASCCREIAASSQRETVSLTPSGSASPPSLRASPGVIRKELCASEELRETSASEPAPSVPYSAQGGHGDCPSSSSLEAVPSMKDAMCEERSSSPRSAGPSLAEPSPPELQPLSPPPVEDICSDDSDDIIFSPFLPRKKSPSPF
binding (TTC23-LAP (mouse)): binds

Next, values leading:

binding [1]: binds
B1: δ-tubulin (TUBD1) (protein, UniProt Q9R1K7 1-455)
chain: T2 sequence

binding [2]: binds
binding [1]: binds
B5: ε-tubulin (TUBE1) (protein, UniProt Q9D6T1 1-475)
chain: MTQSVVVQVGQCGNQIGCCFWDLALREHAAVNQKGIYDDAISSFFRNVDTRAVGDGGSISKGRISSLKARAVLIDMEEGVVNEILQGPLRDVFDSKQLITDISGSGNNWAVGHKVFGCLYREQILEKLRKSAEQCDCLQCFFIIHSMGGGTGSGLGTFLLKVLEDEFPEVYRFVTAVYPSSEDDVITSPYNSMLAMKELNEHADCVLPIDNQSLFDIISKIDLVVNSGKLGSAVKPKSLITSNMGAVKKHHKKPFDAMNNIVANLLLSLTSSARFEGSLNMDLNEISMNLVPFPKLHYLVSSLTPLYTLADVNIPPRRLDQMFSDAFSKDHQLIQADPRHSLYLACALIVRGNVQISDLRRNIERLKPALQFVSWNQEGWKTSLCSVPPVGHSHSLLALANNTCVKPTFMELRERFTRLYKKKAHLHHYLQVDGMEESTFTEAVSSLSALIQEYSDLDATKSLPVPDVPRLSVAL
